Values from PubChem BioAssay AID743454 (Peter MacCallum Cancer Centre, 2014).
Here is an unselected part of about 18,000 reagents. 450 of them (2.5%) were called active. 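Single biological run; no consistent viability z cut-off exists, so the class columns, not z-scores, define the calls.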 Reagent sequences are not shown.

- Aim: 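Genes whose loss kills vorinostat-resistant colon cancer cells under vorinostat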 (primary screen)
- Cell system: human HCT116-VR colon cancer cells, selected for vorinostat resistance
- Reagent: siRNA pool against human genes, 40 nM siRNA pool
- Timing: vorinostat for 24 h, read-out about 72 h after transfection
- Conditions: vorinostat at 2.5 µM final
- Read-out: 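Two measures, CellTiter-Fluor viability and luminescent caspase 3/7 activity, each as fold change against same-plate mock wells, mean of duplicates, then screen-wide robust z-score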
- Direction: viability robust z-score: higher = more viable cells than screen typical; caspase robust z-score: higher = more caspase 3/7 activity than screen typical
- Active means: 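a knock-down is a hit when classed RV1 or RV2 for lowered viability, or CA1 or CA2 for caspase activation; those lethal without drug were dropped; hits were retested singly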

| target gene | viability hit class | caspase hit class | viability robust z-score | caspase robust z-score | outcome |
| --- | --- | --- | --- | --- | --- |
| GLB1L3 (GeneID 112937) | no change | no change | 0.26 | -0.92 | inactive |
| C15orf32 (GeneID 145858) | no change | no change | 0.72 | 0.01 | inactive |
| CDK5RAP3 (GeneID 80279) | no change | no change | -0.18 | -0.84 | inactive |
| HSPB7 (GeneID 27129) | no change | no change | 1.38 | 0.66 | inactive |
| FUT8 (GeneID 2530) | no change | no change | 0.13 | 3.55 | inactive |
| DEFB129 (GeneID 140881) | no change | no change | -1.13 | -0.88 | inactive |
| DCAF13 (GeneID 25879) | no change | no change | -1.06 | -1 | inactive |
| OR8H2 (GeneID 390151) | no change | no change | -1.62 | 0.05 | inactive |
| HDAC11 (GeneID 79885) | no change | no change | -0.28 | -0.46 | inactive |
| ACTN4 (GeneID 81) | no change | no change | 1.04 | -0.25 | inactive |
| OAS1 (GeneID 4938) | no change | no change | 0 | -0.29 | inactive |
| TMCO2 (GeneID 127391) | no change | no change | 0.14 | -0.78 | inactive |
| CCDC136 (GeneID 64753) | no change | no change | -2.69 | -1.13 | inactive |
| POLR3K (GeneID 51728) | no change | no change | -1.34 | 1.49 | inactive |
| KDM4D (GeneID 55693) | no change | no change | -0.47 | 0.98 | inactive |
| CCDC15 (GeneID 80071) | no change | no change | 0.78 | 2.8 | inactive |
| EOMES (GeneID 8320) | no change | no change | 0.72 | -0.15 | inactive |
| TTL (GeneID 150465) | no change | no change | -0.27 | -0.37 | inactive |
| CLPSL1 (GeneID 340204) | no change | no change | 0.38 | 0.53 | inactive |
| HTN3 (GeneID 3347) | no change | no change | 0 | 0.87 | inactive |
| REPIN1 (GeneID 29803) | no change | no change | -0.98 | 0.76 | inactive |
| ABCC9 (GeneID 10060) | no change | no change | -1.14 | -0.24 | inactive |
| AQP6 (GeneID 363) | no change | no change | 0.1 | -0.19 | inactive |
| HSFY2 (GeneID 159119) | no change | no change | -0.32 | 1.63 | inactive |
| FAM27E5 (GeneID 284123) | no change | no change | -1.1 | 0.23 | inactive |
| ACACB (GeneID 32) | no change | no change | 1.18 | -0.7 | inactive |
| ESAM (GeneID 90952) | no change | no change | -0.74 | 1.34 | inactive |
| NAT1 (GeneID 9) | no change | no change | 0.08 | -0.12 | inactive |
| RNF144A (GeneID 9781) | no change | no change | 1.17 | -0.08 | inactive |
| ZNF12 (GeneID 7559) | no change | no change | 1.67 | 2.45 | inactive |
| SPOCD1 (GeneID 90853) | no change | no change | -0.42 | -0.18 | inactive |
| FGB (GeneID 2244) | no change | no change | 0.05 | -1.16 | inactive |
| OR11H1 (GeneID 81061) | no change | no change | 0.18 | 0.64 | inactive |
| LYG2 (GeneID 254773) | no change | no change | 0.49 | 0 | inactive |
| ADAM9 (GeneID 8754) | no change | no change | 0.89 | -0.98 | inactive |
| IFT80 (GeneID 57560) | no change | no change | 0.88 | -0.79 | inactive |
| OR2M5 (GeneID 127059) | no change | no change | 0.38 | -0.77 | inactive |
| GSPT1 (GeneID 2935) | no change | no change | -2.86 | 0.12 | inactive |
| LDLRAD2 (GeneID 401944) | no change | no change | 0.41 | 0.44 | inactive |

Reformatted: 5 of the entries above
target gene,viability hit class,caspase hit class,viability robust z-score,caspase robust z-score,outcome
SPOCD1 (GeneID 90853),no change,no change,-0.42,-0.18,inactive
FGB (GeneID 2244),no change,no change,0.05,-1.16,inactive
OR11H1 (GeneID 81061),no change,no change,0.18,0.64,inactive
LYG2 (GeneID 254773),no change,no change,0.49,0,inactive
ADAM9 (GeneID 8754),no change,no change,0.89,-0.98,inactive
